The values below come from the supplement of paper PMC10849652.

Protein sequences, listed by entry. Tags and fused reporters are not part of them. Lines headed by an entry give the natural chain unless they say otherwise; changes in a name come on top.
UniProt O00330, whole entry, looked up: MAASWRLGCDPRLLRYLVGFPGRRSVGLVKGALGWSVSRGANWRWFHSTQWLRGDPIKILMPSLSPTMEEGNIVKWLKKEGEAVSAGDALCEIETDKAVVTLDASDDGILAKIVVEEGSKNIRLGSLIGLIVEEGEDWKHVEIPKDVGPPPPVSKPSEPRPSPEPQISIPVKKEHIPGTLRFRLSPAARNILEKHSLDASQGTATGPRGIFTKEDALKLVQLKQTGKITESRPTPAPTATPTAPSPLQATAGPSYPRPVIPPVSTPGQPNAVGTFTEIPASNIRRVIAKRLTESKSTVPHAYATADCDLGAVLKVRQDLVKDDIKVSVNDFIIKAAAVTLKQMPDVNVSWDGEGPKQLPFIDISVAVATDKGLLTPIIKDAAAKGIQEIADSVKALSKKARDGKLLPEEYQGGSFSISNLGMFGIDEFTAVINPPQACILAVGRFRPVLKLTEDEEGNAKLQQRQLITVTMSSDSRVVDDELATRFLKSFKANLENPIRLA
UniProt Q9NVE7: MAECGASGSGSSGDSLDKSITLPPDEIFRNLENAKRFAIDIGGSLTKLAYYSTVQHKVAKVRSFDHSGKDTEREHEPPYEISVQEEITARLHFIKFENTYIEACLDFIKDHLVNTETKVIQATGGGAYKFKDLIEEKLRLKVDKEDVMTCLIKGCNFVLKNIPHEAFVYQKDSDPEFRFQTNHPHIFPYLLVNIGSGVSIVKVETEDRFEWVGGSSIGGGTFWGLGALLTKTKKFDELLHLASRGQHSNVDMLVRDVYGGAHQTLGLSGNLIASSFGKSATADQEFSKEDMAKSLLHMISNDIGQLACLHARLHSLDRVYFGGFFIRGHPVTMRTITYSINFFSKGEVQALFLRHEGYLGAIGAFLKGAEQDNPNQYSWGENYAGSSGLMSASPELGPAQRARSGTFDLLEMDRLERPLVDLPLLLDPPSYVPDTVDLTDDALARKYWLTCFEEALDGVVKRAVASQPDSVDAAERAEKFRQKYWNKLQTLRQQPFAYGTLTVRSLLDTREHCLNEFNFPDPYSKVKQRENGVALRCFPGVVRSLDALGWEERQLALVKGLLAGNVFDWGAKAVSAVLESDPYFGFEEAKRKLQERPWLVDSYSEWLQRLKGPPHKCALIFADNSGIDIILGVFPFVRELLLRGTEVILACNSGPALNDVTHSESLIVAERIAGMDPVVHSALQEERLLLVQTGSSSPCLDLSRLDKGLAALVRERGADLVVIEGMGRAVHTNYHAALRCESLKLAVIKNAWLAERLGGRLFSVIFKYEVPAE
UniProt Q5T2R2: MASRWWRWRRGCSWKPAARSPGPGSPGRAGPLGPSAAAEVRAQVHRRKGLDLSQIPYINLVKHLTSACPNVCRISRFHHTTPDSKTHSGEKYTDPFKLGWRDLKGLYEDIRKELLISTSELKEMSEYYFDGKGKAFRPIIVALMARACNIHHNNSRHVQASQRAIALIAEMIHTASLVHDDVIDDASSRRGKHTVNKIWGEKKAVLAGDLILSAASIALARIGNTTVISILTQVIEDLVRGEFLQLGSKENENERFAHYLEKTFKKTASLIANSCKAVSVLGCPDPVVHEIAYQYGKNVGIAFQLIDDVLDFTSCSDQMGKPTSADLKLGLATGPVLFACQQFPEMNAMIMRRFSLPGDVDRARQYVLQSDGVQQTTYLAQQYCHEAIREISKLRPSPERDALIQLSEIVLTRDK
UniProt O00151: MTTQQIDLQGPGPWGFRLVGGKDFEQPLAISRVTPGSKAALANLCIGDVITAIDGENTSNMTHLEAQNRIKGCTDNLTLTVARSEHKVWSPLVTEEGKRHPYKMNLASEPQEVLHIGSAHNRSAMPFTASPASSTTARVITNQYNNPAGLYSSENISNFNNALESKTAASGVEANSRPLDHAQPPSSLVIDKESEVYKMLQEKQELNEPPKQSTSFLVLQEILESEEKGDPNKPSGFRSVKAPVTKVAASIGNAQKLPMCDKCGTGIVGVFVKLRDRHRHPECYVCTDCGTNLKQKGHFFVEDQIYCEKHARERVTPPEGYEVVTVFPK
UniProt P50479: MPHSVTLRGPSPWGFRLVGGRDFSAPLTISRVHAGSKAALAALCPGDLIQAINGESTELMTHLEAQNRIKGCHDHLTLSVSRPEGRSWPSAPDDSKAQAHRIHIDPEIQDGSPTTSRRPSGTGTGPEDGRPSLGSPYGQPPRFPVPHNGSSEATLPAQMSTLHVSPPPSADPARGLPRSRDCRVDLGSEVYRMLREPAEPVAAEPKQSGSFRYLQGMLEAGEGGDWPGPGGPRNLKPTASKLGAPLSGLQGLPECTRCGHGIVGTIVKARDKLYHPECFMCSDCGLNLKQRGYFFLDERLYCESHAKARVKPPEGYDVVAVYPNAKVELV
UniProt Q6P996: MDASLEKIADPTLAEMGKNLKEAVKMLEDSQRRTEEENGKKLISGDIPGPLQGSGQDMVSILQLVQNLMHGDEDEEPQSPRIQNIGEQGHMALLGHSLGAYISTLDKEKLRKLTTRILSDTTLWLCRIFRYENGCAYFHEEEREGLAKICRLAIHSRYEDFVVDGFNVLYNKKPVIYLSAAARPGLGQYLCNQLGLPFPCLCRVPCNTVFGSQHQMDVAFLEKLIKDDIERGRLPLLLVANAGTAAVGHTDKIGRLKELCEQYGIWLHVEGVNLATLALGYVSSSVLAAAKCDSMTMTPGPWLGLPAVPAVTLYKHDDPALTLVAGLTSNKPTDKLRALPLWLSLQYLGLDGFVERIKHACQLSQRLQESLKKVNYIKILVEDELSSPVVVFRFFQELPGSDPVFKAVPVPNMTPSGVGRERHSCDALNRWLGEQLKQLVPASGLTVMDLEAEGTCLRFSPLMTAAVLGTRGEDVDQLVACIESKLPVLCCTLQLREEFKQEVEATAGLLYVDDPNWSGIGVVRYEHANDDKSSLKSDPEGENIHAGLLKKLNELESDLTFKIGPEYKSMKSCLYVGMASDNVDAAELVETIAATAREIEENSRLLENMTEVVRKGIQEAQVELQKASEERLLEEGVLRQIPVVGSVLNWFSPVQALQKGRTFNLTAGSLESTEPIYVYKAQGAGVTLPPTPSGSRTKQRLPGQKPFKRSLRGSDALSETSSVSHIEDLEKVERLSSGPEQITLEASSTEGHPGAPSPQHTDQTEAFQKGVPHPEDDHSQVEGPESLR
UniProt Q9BYG5: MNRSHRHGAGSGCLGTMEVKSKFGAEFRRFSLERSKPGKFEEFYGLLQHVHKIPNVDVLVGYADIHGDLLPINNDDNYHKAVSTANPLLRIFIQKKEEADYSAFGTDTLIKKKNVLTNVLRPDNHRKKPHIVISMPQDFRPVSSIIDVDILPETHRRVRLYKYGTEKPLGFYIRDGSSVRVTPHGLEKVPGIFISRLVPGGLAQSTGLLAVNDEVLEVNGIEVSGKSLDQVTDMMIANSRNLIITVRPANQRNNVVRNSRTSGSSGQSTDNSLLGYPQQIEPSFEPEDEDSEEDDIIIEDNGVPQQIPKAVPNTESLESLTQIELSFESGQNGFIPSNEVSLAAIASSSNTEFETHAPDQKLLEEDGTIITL
UniProt O43933: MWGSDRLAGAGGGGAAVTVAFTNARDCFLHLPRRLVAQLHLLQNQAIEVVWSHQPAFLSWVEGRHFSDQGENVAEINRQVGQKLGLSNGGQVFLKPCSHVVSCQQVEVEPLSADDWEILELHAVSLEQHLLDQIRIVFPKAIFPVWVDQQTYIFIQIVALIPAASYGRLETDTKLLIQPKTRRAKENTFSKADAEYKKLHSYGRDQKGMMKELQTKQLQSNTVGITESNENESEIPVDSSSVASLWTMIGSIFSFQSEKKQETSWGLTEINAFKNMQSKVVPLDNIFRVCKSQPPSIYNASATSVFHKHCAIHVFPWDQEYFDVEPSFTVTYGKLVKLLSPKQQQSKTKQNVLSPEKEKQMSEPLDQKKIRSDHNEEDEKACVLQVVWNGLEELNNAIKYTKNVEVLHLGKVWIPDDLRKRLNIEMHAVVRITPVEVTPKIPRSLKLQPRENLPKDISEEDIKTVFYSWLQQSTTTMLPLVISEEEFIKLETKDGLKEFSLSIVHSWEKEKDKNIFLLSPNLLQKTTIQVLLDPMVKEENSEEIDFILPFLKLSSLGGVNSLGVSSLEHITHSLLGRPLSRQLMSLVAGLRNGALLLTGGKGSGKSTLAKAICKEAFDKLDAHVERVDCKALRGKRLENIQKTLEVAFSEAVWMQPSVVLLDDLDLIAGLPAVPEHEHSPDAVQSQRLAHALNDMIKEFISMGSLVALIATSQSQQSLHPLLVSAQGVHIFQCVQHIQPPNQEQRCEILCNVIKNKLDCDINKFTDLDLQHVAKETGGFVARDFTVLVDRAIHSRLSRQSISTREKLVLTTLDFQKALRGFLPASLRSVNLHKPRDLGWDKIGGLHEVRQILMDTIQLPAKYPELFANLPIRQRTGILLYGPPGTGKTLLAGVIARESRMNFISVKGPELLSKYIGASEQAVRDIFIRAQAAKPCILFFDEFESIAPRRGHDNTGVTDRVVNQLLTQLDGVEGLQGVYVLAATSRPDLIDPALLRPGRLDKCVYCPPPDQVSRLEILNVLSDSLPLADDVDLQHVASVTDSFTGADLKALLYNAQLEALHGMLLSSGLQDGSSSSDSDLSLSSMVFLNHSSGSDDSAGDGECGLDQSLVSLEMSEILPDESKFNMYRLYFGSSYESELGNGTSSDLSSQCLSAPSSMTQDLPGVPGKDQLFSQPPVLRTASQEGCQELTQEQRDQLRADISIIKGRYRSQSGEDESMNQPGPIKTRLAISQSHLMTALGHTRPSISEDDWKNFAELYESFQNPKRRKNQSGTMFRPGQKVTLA
UniProt Q99497, whole entry, looked up: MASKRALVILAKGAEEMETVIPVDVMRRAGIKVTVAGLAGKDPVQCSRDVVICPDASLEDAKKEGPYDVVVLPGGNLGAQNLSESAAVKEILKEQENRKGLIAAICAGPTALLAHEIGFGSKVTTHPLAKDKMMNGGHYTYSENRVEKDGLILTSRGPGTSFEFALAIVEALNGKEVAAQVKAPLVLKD
UniProt O00541, whole entry, looked up: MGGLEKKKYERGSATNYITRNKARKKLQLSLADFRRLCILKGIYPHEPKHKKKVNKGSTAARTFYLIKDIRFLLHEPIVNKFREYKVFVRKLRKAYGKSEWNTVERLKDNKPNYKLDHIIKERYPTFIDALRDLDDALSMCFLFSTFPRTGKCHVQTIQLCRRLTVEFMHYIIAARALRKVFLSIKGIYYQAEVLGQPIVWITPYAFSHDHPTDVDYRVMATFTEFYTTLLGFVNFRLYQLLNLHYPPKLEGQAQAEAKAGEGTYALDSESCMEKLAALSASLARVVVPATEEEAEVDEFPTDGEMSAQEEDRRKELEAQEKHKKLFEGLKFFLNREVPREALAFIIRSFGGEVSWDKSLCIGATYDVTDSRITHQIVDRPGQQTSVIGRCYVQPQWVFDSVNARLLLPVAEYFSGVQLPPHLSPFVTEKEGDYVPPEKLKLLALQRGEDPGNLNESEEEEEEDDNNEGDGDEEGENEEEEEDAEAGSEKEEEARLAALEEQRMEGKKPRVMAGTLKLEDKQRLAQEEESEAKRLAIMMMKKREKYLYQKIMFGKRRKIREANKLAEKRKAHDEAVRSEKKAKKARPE
UniProt Q13310, whole entry, looked up: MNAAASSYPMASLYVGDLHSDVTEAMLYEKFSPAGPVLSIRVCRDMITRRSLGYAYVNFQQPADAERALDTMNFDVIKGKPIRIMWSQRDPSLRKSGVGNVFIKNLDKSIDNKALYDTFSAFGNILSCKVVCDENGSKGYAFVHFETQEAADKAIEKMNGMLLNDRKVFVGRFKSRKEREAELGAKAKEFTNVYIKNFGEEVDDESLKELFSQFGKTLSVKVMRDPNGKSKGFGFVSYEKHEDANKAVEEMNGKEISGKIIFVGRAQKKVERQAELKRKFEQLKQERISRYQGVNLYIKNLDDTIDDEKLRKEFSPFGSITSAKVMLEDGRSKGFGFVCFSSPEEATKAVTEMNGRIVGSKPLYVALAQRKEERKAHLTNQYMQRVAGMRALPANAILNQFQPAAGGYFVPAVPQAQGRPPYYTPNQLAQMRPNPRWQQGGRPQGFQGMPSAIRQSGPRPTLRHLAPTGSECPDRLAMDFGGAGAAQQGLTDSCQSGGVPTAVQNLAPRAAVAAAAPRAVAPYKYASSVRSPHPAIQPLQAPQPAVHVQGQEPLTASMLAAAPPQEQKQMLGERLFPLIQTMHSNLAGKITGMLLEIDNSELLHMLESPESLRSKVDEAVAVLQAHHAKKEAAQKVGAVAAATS
UniProt P11177, whole entry, looked up: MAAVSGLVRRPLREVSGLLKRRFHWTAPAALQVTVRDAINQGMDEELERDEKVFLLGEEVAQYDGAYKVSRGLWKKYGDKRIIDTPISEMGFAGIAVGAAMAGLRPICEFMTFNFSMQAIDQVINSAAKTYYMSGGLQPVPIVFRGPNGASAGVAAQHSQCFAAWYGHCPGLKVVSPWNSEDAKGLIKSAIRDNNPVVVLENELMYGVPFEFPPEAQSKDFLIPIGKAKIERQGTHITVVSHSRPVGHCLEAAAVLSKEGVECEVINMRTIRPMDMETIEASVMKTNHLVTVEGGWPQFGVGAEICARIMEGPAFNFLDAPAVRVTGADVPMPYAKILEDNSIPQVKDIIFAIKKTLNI

The other results are listed elsewhere or left out.

Compound in this assay: Cc1cccc(CC(=O)N2CCc3c2ccc(-c2cn(C)c4ncnc(N)c24)c3F)n1
The assay can be described thus: log2 fold change, soluble protein after heating vs DMSO (PISA); higher = thermal stabilisation; K562 cells, 10 uM, 30 min; active = over 0.2 and 3.5 SD of the protein, either way, in both replicates (recomputed). The gist of the method:
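Values are thermal stability changes relative to control samples and are taken from duplicates. They are stated as log2 fold changes. Before quantification by TMTpro 16plex LC-MS/MS with equalised channel sums, K562 cells at 2×10^6 cells/mL were treated with 10 μM compound for 30 min, heated in aliquots for 3 min across 48°C-58°C, pooled, extracted in PBS with 0.5% NP-40 at 4°C, and centrifuged at 21,000xg for 90 min to give the soluble supernatant.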
Take PEX12 (UniProt O00623): the log2 fold change was inactive: -0.101.
In the case of PDHX (UniProt O00330), the log2 fold change was inactive: 0.046.
The same measure for PANK4 (UniProt Q9NVE7): inactive: 0.019; for PDSS1 (UniProt Q5T2R2): inactive: 0.026; for PDLIM1 (UniProt O00151): inactive: -0.016.
Regarding PDLIM4 (UniProt P50479), the log2 fold change was inactive: 0.003.
As to PAK2 (UniProt Q13177), the log2 fold change was inactive: -0.006.
For the target PACSIN2 (UniProt Q9UNF0), the log2 fold change is inactive: 0.1.
Turning to PDXDC1 (UniProt Q6P996), the log2 fold change was inactive: 0.081.
For PASK (UniProt Q96RG2) the value was inactive: 0.034; for PARD6B (UniProt Q9BYG5), inactive: 0.022.
For PEBP1 (UniProt P30086), the log2 fold change was inactive: -0.003.
The same measure for PCYOX1 (UniProt Q9UHG3): inactive: -0.001; for PDXP (UniProt Q96GD0): inactive: -0.039.
The same measure for PER3 isoform 2 (UniProt P56645): inactive: -0.035; for PEX1 (UniProt O43933): inactive: 0.004; for PARK7 (UniProt Q99497): inactive: 0.143.
For PAK1IP1 (UniProt Q9NWT1) the value was inactive: 0.009.
Take PES1 (UniProt O00541): the log2 fold change was inactive: 0.003.
The same measure for PDRG1 (UniProt Q9NUG6): inactive: -0.001.
As to PDXK (UniProt O00764), the log2 fold change is inactive: 0.003.
In the case of PABPC4 isoform 3 (UniProt Q13310), the log2 fold change was inactive: -0.018.
The same measure for PCMT1 isoform 2 (UniProt P22061): inactive: -0.023; for PEPD (UniProt P12955): inactive: -0.07.
For PDCD10 (UniProt Q9BUL8) the value was inactive: -0.009.
The same measure for PAPOLA (UniProt P51003): inactive: -0.005; for PARVB (UniProt Q9HBI1): inactive: 0.031.
With PANX1 (UniProt Q96RD7), the log2 fold change was inactive: -0.003.
The same measure for PAFAH1B1 (UniProt P43034): inactive: 0.007; for PDIA3 (UniProt P30101): inactive: 0.025.
As for PDHB (UniProt P11177), the log2 fold change was inactive: 0.075.
For PAIP1 (UniProt Q9H074) the value was inactive: -0.034.
The same measure for PDCL (UniProt Q13371): inactive: -0.016.
